Laboratory results published in PMC10895845.

The chains behind the UniProt entries cited, without tags or fusion partners.
UniProt Q8WUM4: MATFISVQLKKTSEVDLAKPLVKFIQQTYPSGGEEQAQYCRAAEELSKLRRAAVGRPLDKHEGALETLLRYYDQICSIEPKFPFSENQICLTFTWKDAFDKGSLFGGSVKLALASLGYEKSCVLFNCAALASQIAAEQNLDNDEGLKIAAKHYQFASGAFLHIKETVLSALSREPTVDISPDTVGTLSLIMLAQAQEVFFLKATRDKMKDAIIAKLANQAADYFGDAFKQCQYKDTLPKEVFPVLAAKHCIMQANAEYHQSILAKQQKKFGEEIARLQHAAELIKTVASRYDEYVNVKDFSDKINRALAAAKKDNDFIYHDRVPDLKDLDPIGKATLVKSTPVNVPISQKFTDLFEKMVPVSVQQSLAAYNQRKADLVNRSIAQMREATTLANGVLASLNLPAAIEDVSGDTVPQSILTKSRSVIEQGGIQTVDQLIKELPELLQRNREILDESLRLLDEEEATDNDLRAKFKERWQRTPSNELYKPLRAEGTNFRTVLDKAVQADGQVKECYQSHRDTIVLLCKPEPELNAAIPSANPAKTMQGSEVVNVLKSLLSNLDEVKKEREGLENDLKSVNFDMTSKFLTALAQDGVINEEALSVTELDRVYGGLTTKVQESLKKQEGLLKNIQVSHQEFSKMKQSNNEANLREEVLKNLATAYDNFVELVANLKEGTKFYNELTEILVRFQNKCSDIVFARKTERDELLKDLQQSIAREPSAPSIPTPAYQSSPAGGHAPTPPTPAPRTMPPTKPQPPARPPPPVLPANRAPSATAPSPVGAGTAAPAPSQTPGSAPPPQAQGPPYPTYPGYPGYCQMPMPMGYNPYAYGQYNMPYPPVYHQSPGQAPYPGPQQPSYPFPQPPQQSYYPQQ
UniProt Q9H0U4: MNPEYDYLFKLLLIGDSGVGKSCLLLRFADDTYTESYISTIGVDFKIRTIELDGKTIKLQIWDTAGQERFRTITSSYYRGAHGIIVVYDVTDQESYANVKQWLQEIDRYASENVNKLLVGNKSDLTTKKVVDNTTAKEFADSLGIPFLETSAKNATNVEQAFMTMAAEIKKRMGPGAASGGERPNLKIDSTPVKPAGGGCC

T1: MT-VMP1-flag (VMP1 C263, 278S palmitoylation-site mutant, flag-tagged) (UniProt Q96GC9)
T1 sequence: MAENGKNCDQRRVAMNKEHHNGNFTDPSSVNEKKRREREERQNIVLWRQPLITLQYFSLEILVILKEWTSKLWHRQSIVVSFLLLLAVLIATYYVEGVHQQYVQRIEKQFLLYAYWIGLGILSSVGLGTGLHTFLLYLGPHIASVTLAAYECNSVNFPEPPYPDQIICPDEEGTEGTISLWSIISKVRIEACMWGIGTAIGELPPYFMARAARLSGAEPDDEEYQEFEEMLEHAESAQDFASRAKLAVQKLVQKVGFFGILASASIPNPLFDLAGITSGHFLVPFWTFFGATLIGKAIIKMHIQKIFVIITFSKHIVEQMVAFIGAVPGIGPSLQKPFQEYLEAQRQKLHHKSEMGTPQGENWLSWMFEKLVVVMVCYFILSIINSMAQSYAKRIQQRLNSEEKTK


Legend:
Test in all cases: affinity purification with mass spectrometry; SCs transfected with WT-VMP1-flag, MT-VMP1-flag or flag control (NC); lysis in 25 mM Tris, 150 mM NaCl, 1 mM EDTA, 1% NP-40, 5% glycerol, pH 7.4; immunoprecipitation with anti-Flag; gel bands digested with trypsin, LC-MS/MS
[1] = target: WT-VMP1-flag (flag-tagged wild-type Vacuole Membrane Protein 1) (UniProt Q96GC9)
[2] = target: T1, MT-VMP1-flag (VMP1 C263, 278S palmitoylation-site mutant, flag-tagged)
[3] = target: WT-VMP1-flag (flag-tagged wild-type Vacuole Membrane Protein 1) (UniProt Q96GC9); remark: listed apart in the source

| binding [1] | binding [2] | binding [3] | Molecule |
| --- | --- | --- | --- |
| binds | no binding | – | ALIX (encoded by PDCD6IP gene), endogenous in Sertoli cells (from UniProt Q8WUM4 1-868) |
| binds | – | – | Rab1B (from UniProt Q9H0U4 1-201) |
| – | – | binds | Rab9A (protein, UniProt P51151 1-201) MAGKSSLFKVILLGDGGVGKSSLMNRYVTNKFDTQLFHTIGVEFLNKDLEVDGHFVTMQIWDTAGQERFRSLRTPFYRGSDCCLLTFSVDDSQSFQNLSNWKKEFIYYADVKEPESFPFVILGNKIDISERQVSTEEAQAWCRDNGDYPYFETSAKDATNVAAAFEEAVRRVLATEDRSDHLIQTDTVNLHRKPKPSSSCC |

Read-outs that look alike come from different tables or passages of the source. No constants are given. Whether binding was seen depends on the method and setting. In cells and extracts the contact can be indirect. A yes stands for co-enrichment or nearness to the bait. Other partners may have been found. For some of these results: A no says only that the protein was not detected with the bait. For some of these results: Sequences can lack the tags named with a protein.
